From PubChem BioAssay AID1487 (National Center for Advancing Translational Sciences (NCATS), 2009)
This is one part of the list. Further columns of the screen follow, without active or inactive calls. Most of these compounds were active or inconclusive in the main read-out, so they are no random draw. The note in brackets gives the kind of curve behind each potency; many fits are weak.

Assay: qHTS Assay for Modulators of Lamin A Splicing
Conditions: HeLa LMNA splicing GFP/RFP minigene ratio, 48 h
Summary of the method: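 Read-out is the ratio of GFP to DsRed2 object intensity, acquired by 488 nm laser-scanning cytometry on HeLa lamin A-EGFP minigene reporter cells. Compound incubation 48 hrs at 37 °C in Opti-MEM with 2% FBS; DMSO 0.5% final.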

[1] = measured here: GFP splicing reporter channel
[2] = measured here: RFP viability control channel

For `NC(=O)NC(CC(=O)NCCc1ccc(S(N)(=O)=O)cc1)c1ccccc1Cl` (stereo unspecified), which AC50 [1] is on record?
The AC50 was 0.01 µM [rising, full curve, poor fit].

What about the AC50 [2] of the same molecule?
The AC50 was 4.47 µM [rising, full curve].

For `O=c1oc2c(CN3CCN(CCO)CC3)c(O)ccc2cc1-c1ccccn1`, which AC50 [1] is on record?
Its AC50 is 0.316 µM [rising, full curve].

What about the AC50 [2] of the same molecule?
Its AC50 is 0.447 µM [rising, full curve, poor fit].

With `O=C(N/N=C/C=C\c1ccco1)c1cccnc1` as the molecule, how does the AC50 [2] read?
Its AC50 is 0.0112 µM [falling, full curve, poor fit].

Which AC50 [1] does the source give for `CCN1C(=O)N[C@H](c2ccc(Br)cc2)C(C(C)=O)=C1C` here?
The AC50 was 0.01 µM [falling, full curve, poor fit].

Which AC50 [1] does the source give for `CCN(CC)c1ccc(NS(=O)(=O)c2ccc3c(c2)CCCN3C(C)=O)c(C)c1` here?
Its AC50 is 35.5 µM [falling, single point].

With `CC(C)Cn1c(N)c(C(=O)COC(=O)CC23CC4CC(CC(C4)C2)C3)c(=O)n(C)c1=O` as the molecule, how does the AC50 [1] read?
Its AC50 is 20 µM [rising, single point].

What about the AC50 [2] of the same molecule?
Its AC50 is 2.82 µM [rising, full curve].

For `Cc1cccc(N2CCN(C(=O)c3ccncc3)CC2C)c1` (stereo unspecified), which AC50 [1] is on record?
The AC50 was 35.5 µM [falling, single point].

Which AC50 [1] does the source give for `CCc1ccc(N2CCn3c2nc2c3c(=O)n(Cc3cccc(C)c3)c(=O)n2C)cc1` here?
The AC50 was 1.12 µM [rising, full curve, poor fit].

What does the source list for `CC1CC2=C(C(=O)O1)C(c1ccc(Cl)cc1)Nc1ccccc1N2` (stereo unspecified)?
AC50 [1]: 2.82 µM [falling, partial curve, poor fit]; AC50 [2]: 1.41 µM [falling, partial curve]

With `CC1=CC(C)(C)Nc2ccc(OC(=O)C(Cc3ccccc3)N3C(=O)c4ccccc4C3=O)cc21` (stereo unspecified) as the molecule, how does the AC50 [1] read?
The AC50 was 15.8 µM [rising, partial curve].

What about the AC50 [2] of the same molecule?
The AC50 was 11.2 µM [rising, partial curve].

With `CN(CCC1CCCCO1)C(=O)CCc1nnc(CCCCc2ccccc2)o1` (stereo unspecified) as the molecule, how does the AC50 [2] read?
Its AC50 is 1.41 µM [falling, full curve].

Which AC50 [1] does the source give for `S=C(Nc1ccc2c(c1)OCO2)N1CCN(Cc2ccco2)CC1` here?
Its AC50 is 0.0794 µM [rising, full curve, poor fit].

With `COc1cc(-c2nnc(CSc3nnc(Nc4ccc(C(C)C)cc4)s3)o2)cc(OC)c1OC` as the molecule, how does the AC50 [2] read?
The AC50 was 17.8 µM [rising, partial curve, poor fit].

With `CCOC(=O)c1cnc2ccc(C(=O)OC)cc2c1Nc1ccc2c(c1)OCCO2` as the molecule, how does the AC50 [2] read?
Its AC50 is 0.282 µM [falling, full curve, poor fit].

With `COC(=O)c1[nH]c2cccc(OC)c2c1NC(=O)CCN1CCSCC1` as the molecule, how does the AC50 [1] read?
Its AC50 is 0.708 µM [rising, single point].

With `CC1(C)CC(N2CN(C3CCCCC3)CC2=O)CC(C)(C)N1` as the molecule, how does the AC50 [2] read?
The AC50 was 0.0126 µM [falling, full curve, poor fit].

Which AC50 [2] does the source give for `COc1ccc(CCNc2oc(-c3ccc(OC)c(OC)c3)nc2C#N)cc1` here?
The AC50 was 35.5 µM [rising, single point].

With `Cc1cc(C(=O)N/N=C/c2cc(N=Nc3ccccc3)ccc2O)n[nH]1` as the molecule, how does the AC50 [1] read?
The AC50 was 0.794 µM [falling, full curve, poor fit].

What about the AC50 [2] of the same molecule?
The AC50 was 0.355 µM [rising, full curve].

For `O=C(c1ccc2c(c1)OCCO2)N(Cc1cccnc1)c1nc2ccc(F)cc2s1`, which AC50 [1] is on record?
Its AC50 is 0.355 µM [rising, full curve, poor fit].

What about the AC50 [2] of the same molecule?
Its AC50 is 7.08 µM [rising, partial curve, poor fit].

Which AC50 [2] does the source give for `CCC(=O)NC1=C(Cl)C(=O)C(NC(=O)CC)=C(Cl)C1=O` here?
Its AC50 is 7.08 µM [falling, full curve].

With `COc1ccc(-n2c(C)cc(/C=N/Nc3nc(N4CCOCC4)nc(N4CCOCC4)n3)c2C)cc1` as the molecule, how does the AC50 [2] read?
The AC50 was 31.6 µM [rising, single point].

What does the source list for `N=C1S/C(=C\c2cccc3ccccc23)C(=O)N1c1ccc(F)cc1`?
AC50 [1]: 12.6 µM [falling, partial curve]; AC50 [2]: 35.5 µM [falling, single point]

Which results are given for `CC1CN(C(=O)N2CCC(C(=O)NC3CCCCCC3)CC2)c2cc(Cl)ccc2O1` (stereo unspecified)?
AC50 [1]: 14.1 µM [rising, partial curve]; AC50 [2]: 20 µM [rising, single point]

Which results are given for `O=C(NC(=S)NCCc1ccc(Cl)cc1)c1ccco1`?
AC50 [1]: 12.6 µM [rising, single point]; AC50 [2]: 35.5 µM [rising, single point]

Which AC50 [2] does the source give for `CCc1ccccc1-n1c(-c2ccncc2)n[nH]c1=S` here?
The AC50 was 2.24 µM [rising, partial curve, poor fit].

Which AC50 [2] does the source give for `Cc1cc(C)nc(SC2CCCCC2NS(=O)(=O)c2ccc(Cl)cc2)n1` (stereo unspecified) here?
The AC50 was 17.8 µM [rising, single point].

Which AC50 [2] does the source give for `c1cncc(Oc2cccc(Oc3cccnc3)c2)c1` here?
The AC50 was 35.5 µM [rising, single point].

For `OC(COc1ccc2ccccc2c1Br)Cn1ccnc1` (stereo unspecified), which AC50 [2] is on record?
The AC50 was 22.4 µM [rising, single point].

Which AC50 [2] does the source give for `COC(=O)c1ccc2nc(Nc3nc4c(F)cc(F)cc4s3)sc2c1` here?
Its AC50 is 0.126 µM [rising, full curve].

With `Cc1ccc(OCCn2cnc3c(N)ncnc32)cc1` as the molecule, how does the AC50 [1] read?
Its AC50 is 0.01 µM [rising, full curve, poor fit].

And the AC50 [2]?
Its AC50 is 12.6 µM [rising, partial curve].

Which AC50 [2] does the source give for `O=C(O)c1ccccc1C(=O)NCCc1ccc(Cl)cc1` here?
The AC50 was 0.02 µM [falling, full curve, poor fit].

For `COc1ccc(OC)c(Nc2ncnc3c2nc2n3CCCC2)c1`, which AC50 [2] is on record?
Its AC50 is 10 µM [rising, partial curve].

For `Cc1cccc(NC(=O)c2cc3ccccc3o2)c1`, which AC50 [2] is on record?
The AC50 was 3.98 µM [rising, single point].

With `O=C(/C=C/c1ccccc1)NC(=S)Nc1ccccc1C(=O)NC1CCCCC1` as the molecule, how does the AC50 [2] read?
The AC50 was 14.1 µM [falling, single point].

Which AC50 [2] does the source give for `Nc1c(-c2ccccc2)c(CSc2nc3ccccc3[nH]2)nn1-c1cccc(C(=O)O)c1` here?
Its AC50 is 0.00355 µM [falling, full curve, poor fit].

For `COc1cc(O)c2c(=O)c3c(OC)c(O)ccc3oc2c1`, which AC50 [1] is on record?
Its AC50 is 25.1 µM [falling, single point].

What about the AC50 [2] of the same molecule?
Its AC50 is 15.8 µM [falling, partial curve].

For `Cn1c(COc2ccccc2)nnc1SCCN1CCOCC1`, which AC50 [2] is on record?
The AC50 was 0.112 µM [falling, full curve, poor fit].

With `COc1ccc(N2CCN(S(=O)(=O)c3ccc(OC)cc3)CC2)cc1` as the molecule, how does the AC50 [2] read?
The AC50 was 11.2 µM [rising, partial curve, poor fit].

Which AC50 [1] does the source give for `O=C(CN1CCCN(S(=O)(=O)c2ccc(Br)cc2)CC1)Nc1ccc2c(c1)OCO2` here?
Its AC50 is 35.5 µM [rising, single point].

And the AC50 [2]?
Its AC50 is 35.5 µM [rising, single point].

With `O=C(CN1C(=O)CCC1=O)NNc1ccc2ccccc2c1` as the molecule, how does the AC50 [1] read?
The AC50 was 3.16 µM [rising, single point].

What about the AC50 [2] of the same molecule?
Its AC50 is 2.82 µM [rising, partial curve].

With `COc1ccccc1-c1nc(Nc2ccncc2)c2ccccc2n1` as the molecule, how does the AC50 [1] read?
Its AC50 is 7.94 µM [falling, partial curve].

For `Cc1ccc(C(=O)/C=C/C(=O)O)cc1`, which AC50 [1] is on record?
The AC50 was 35.5 µM [falling, single point].

What about the AC50 [2] of the same molecule?
The AC50 was 11.2 µM [rising, partial curve].

Which AC50 [2] does the source give for `O=C(Nc1cccc(C(=O)N2CCN(c3cccc(Cl)c3)CC2)c1)c1nsc2ccccc12` here?
The AC50 was 11.2 µM [falling, single point].

With `COc1ccc(CN2CCN(CCCCOc3ccc(Cl)cc3)CC2)c(OC)c1OC` as the molecule, how does the AC50 [2] read?
The AC50 was 5.62 µM [rising, partial curve, poor fit].

For `CCOC(=O)N1CCC(NC(=O)c2ccc3c(c2)N(Cc2ccc(F)cc2)CCS3)CC1`, which AC50 [2] is on record?
Its AC50 is 10 µM [rising, partial curve].

Which AC50 [2] does the source give for `CCOC(=O)/C(=N/Nc1ccc(Cl)cc1)Sc1nnnn1-c1ccc(C)cc1` here?
Its AC50 is 10 µM [rising, partial curve, poor fit].

With `O=C(Nc1ccc(Cl)c(Cl)c1)Nc1ccc(N2CCCC2)c(S(=O)(=O)Nc2ccccc2Cl)c1` as the molecule, how does the AC50 [1] read?
The AC50 was 5.62 µM [rising, single point].

What about the AC50 [2] of the same molecule?
The AC50 was 5.62 µM [rising, single point].

For `CN1CCN(C=NC2=NN(c3cccc(C(F)(F)F)c3)CC2)CC1`, which AC50 [2] is on record?
Its AC50 is 0.0126 µM [rising, full curve, poor fit].

Which results are given for `COc1cc2[nH]c(=S)nc(Nc3ccc(NC(C)=O)cc3)c2cc1OC`?
AC50 [1]: 31.6 µM [falling, partial curve]; AC50 [2]: 22.4 µM [falling, single point]

Which AC50 [1] does the source give for `Cc1[nH]c2ccccc2c1C(c1ccncc1)N1CCC(C)CC1` (stereo unspecified) here?
The AC50 was 31.6 µM [falling, single point].

With `O=C(Nc1ccccc1)Nc1snnc1C(=O)Nc1cccc(O)c1` as the molecule, how does the AC50 [2] read?
The AC50 was 39.8 µM [falling, partial curve].

Which results are given for `O=C(/C=C/c1ccccc1)N/C(=C/c1ccccc1)C(=O)NCCO`?
AC50 [1]: 35.5 µM [falling, single point]; AC50 [2]: 35.5 µM [falling, single point]

Which AC50 [1] does the source give for `CCc1nc(SCC(=O)N2CCN(c3ccccc3)CC2)c2oc3ccccc3c2n1` here?
Its AC50 is 15.8 µM [falling, single point].

What about the AC50 [2] of the same molecule?
The AC50 was 17.8 µM [falling, partial curve].

With `Nc1c(C(=O)Nc2ccc3c(c2)OCCO3)nnn1CCc1ccccc1` as the molecule, how does the AC50 [2] read?
The AC50 was 5.62 µM [rising, single point].

For `CCOc1ccccc1NC(=O)c1c(Br)cnn1C`, which AC50 [1] is on record?
The AC50 was 8.91 µM [falling, partial curve, poor fit].

And the AC50 [2]?
Its AC50 is 11.2 µM [falling, partial curve, poor fit].

For `Cc1c(C(=O)NC2CCCc3ccccc32)oc2ccccc12` (stereo unspecified), which AC50 [2] is on record?
The AC50 was 12.6 µM [rising, single point].
